# Assay results as given in the supplement of paper PMC8728848.
# The list shows a part of the results.
# B1: ERGIC1-EDTA (Homo sapiens), Q969X5 (protein)
# chain: MKFLVNVALVFMVVYISYIYAAAHMHHHHHHDYDIPTTENLYFQGSEVVNELYVDDPDKDSGGKIDVSLNISLPNLHCELVGLDIQDEMGRHEVGHIDNSMKIPLNNGAGCRFEGQFSINKVPGNFHVSTHSATAQPQNPDMTHVIHKLSFGDTLQVQNIHGAFNALGGADRLTSNPLASHDYILKIVPTVYEDKSGKQRYSYQYTVANKEYVAYSHTGRIIPAIWFRYDLSPITVKYTE
# Assays:
# Assay in all cases: glycan array binding signal (z-score within array); higher = stronger binding
# Details in all cases: glycan notation: IUPAC condensed, linker removed
# [1] = target: Neu5Ac(a2-6)GlcNAc(b1-4)GlcNAc(b1-4)GlcNAc
# Procedure, shortened: (§1)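 From the Consortium for Functional Glycomics database, 3228 arrays were curated, keeping only those whose protein sequence was available. Binding is given as a within-array Z-score averaged across arrays sharing a protein sequence and across linkers. Negative Z-scores can be read as non-binding.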
# Neu5Ac(a2-8)Neu5Ac = target: Neu5Ac(a2-8)Neu5Ac
# Procedure, shortened: as §1
# [2] = target: Neu5Ac(a2-8)Neu5Ac(a2-3)Gal(b1-3)GalNAc(b1-4)[Neu5Ac(a2-3)]Gal(b1-4)Glc
# Procedure, shortened: as §1
# [3] = target: Neu5Ac(a2-8)Neu5Ac(a2-3)Gal(b1-3)GalNAc(b1-4)[Neu5Ac(a2-8)Neu5Ac(a2-3)]Gal(b1-4)Glc
# Procedure, shortened: as §1
# [4] = target: Neu5Ac(a2-8)Neu5Ac(a2-3)Gal(b1-4)Glc
# Procedure, shortened: as §1
# [5] = target: Neu5Ac(a2-8)Neu5Ac(a2-3)Gal(b1-4)GlcNAc
# Procedure, shortened: as §1
# [6] = target: Neu5Ac(a2-8)Neu5Ac(a2-3)[Gal(b1-3)GalNAc(b1-4)]Gal(b1-4)Glc
# Procedure, shortened: as §1
# [7] = target: Neu5Ac(a2-8)Neu5Ac(a2-3)[GalNAc(b1-4)]Gal(b1-4)Glc
# Procedure, shortened: as §1
# [8] = target: Neu5Ac(a2-8)Neu5Ac(a2-8)Neu5Ac
# Procedure, shortened: as §1
# [9] = target: Neu5Ac(a2-8)Neu5Ac(a2-8)Neu5Ac(a2-3)Gal(b1-4)Glc
# Procedure, shortened: as §1
# [10] = target: Neu5Ac(a2-8)Neu5Ac(a2-8)Neu5Ac(a2-3)[Gal(b1-3)GalNAc(b1-4)]Gal(b1-4)Glc
# Procedure, shortened: as §1
# [11] = target: Neu5Ac(a2-8)Neu5Ac(a2-8)Neu5Ac(a2-3)[GalNAc(b1-4)]Gal(b1-4)Glc
# Procedure, shortened: as §1
# [12] = target: Neu5Ac(a2-8)Neu5Ac(a2-8)Neu5Ac(a2-8)Neu5Ac(a2-3)[GalNAc(b1-4)]Gal(b1-4)Glc
# Procedure, shortened: as §1
# [13] = target: Neu5Ac(a2-8)Neu5Gc(a2-3)Gal(b1-4)GlcNAc
# Procedure, shortened: as §1
# [14] = target: Neu5Ac(b2-6)Gal(b1-4)GlcNAc
# Procedure, shortened: as §1
# Neu5Ac(b2-6)GalNAc = target: Neu5Ac(b2-6)GalNAc
# Procedure, shortened: as §1
# [15] = target: Neu5Ac9Ac(a2-3)Gal(b1-3)GlcNAc
# Procedure, shortened: as §1
# [16] = target: Neu5Ac9Ac(a2-3)Gal(b1-4)GlcNAc
# Procedure, shortened: as §1
# [17] = target: Neu5Ac9Ac(a2-6)Gal(b1-4)GlcNAc
# Procedure, shortened: as §1
# [18] = target: Neu5Gc(a2-3)Gal(b1-3)GlcNAc
# Procedure, shortened: as §1
# [19] = target: Neu5Gc(a2-3)Gal(b1-3)[Fuc(a1-4)]GlcNAc
# Procedure, shortened: as §1
# Neu5Gc(a2-3)Gal(b1-4)Glc = target: Neu5Gc(a2-3)Gal(b1-4)Glc
# Procedure, shortened: as §1
# [20] = target: Neu5Gc(a2-3)Gal(b1-4)GlcNAc
# Procedure, shortened: as §1
# [21] = target: Neu5Gc(a2-3)Gal(b1-4)GlcNAc(b1-3)Gal(b1-4)GlcNAc(b1-2)Man(a1-3)[Neu5Gc(a2-3)Gal(b1-4)GlcNAc(b1-3)Gal(b1-4)GlcNAc(b1-2)Man(a1-6)]Man(b1-4)GlcNAc(b1-4)GlcNAc
# Procedure, shortened: as §1
# [22] = target: Neu5Gc(a2-3)Gal(b1-4)[Fuc(a1-3)]GlcNAc
# Procedure, shortened: as §1
# [23] = target: Neu5Gc(a2-6)Gal(b1-4)GlcNAc
# Procedure, shortened: as §1
# Neu5Gc(a2-6)GalNAc = target: Neu5Gc(a2-6)GalNAc
# Procedure, shortened: as §1
# [24] = target: Neu5Gc(a2-8)Neu5Ac(a2-3)Gal(b1-4)GlcNAc
# Procedure, shortened: as §1
# [25] = target: Neu5Gc(a2-8)Neu5Gc(a2-3)Gal(b1-4)GlcNAc
# Procedure, shortened: as §1
# [26] = target: Neu5Gc(a2-8)Neu5Gc(a2-3)Gal(b1-4)GlcNAc(b1-3)Gal(b1-4)GlcNAc
# Procedure, shortened: as §1
# [27] = target: Neu5Gc(a2-8)Neu5Gc(a2-6)Gal(b1-4)GlcNAc
# Procedure, shortened: as §1
# [28] = target: Neu5Gc(b2-6)Gal(b1-4)GlcNAc
# Procedure, shortened: as §1
binder,measurement,setting,value
B1,glycan array binding signal (z-score),[1],-1.45
same,glycan array binding signal (z-score),Neu5Ac(a2-8)Neu5Ac,0.236
same,glycan array binding signal (z-score),[2],0.149
same,glycan array binding signal (z-score),[3],-0.353
same,glycan array binding signal (z-score),[4],0.307
same,glycan array binding signal (z-score),[5],-0.361
same,glycan array binding signal (z-score),[6],0.235
same,glycan array binding signal (z-score),[7],-0.149
same,glycan array binding signal (z-score),[8],-0.312
same,glycan array binding signal (z-score),[9],-0.342
same,glycan array binding signal (z-score),[10],-0.357
same,glycan array binding signal (z-score),[11],0.592
same,glycan array binding signal (z-score),[12],0.125
same,glycan array binding signal (z-score),[13],-0.877
same,glycan array binding signal (z-score),[14],-0.557
same,glycan array binding signal (z-score),Neu5Ac(b2-6)GalNAc,-0.459
same,glycan array binding signal (z-score),[15],0.24
same,glycan array binding signal (z-score),[16],-0.925
same,glycan array binding signal (z-score),[17],-0.805
same,glycan array binding signal (z-score),[18],0.321
same,glycan array binding signal (z-score),[19],-0.27
same,glycan array binding signal (z-score),Neu5Gc(a2-3)Gal(b1-4)Glc,0.805
same,glycan array binding signal (z-score),[20],0.051
same,glycan array binding signal (z-score),[21],0.155
same,glycan array binding signal (z-score),[22],-0.668
same,glycan array binding signal (z-score),[23],-0.464
same,glycan array binding signal (z-score),Neu5Gc(a2-6)GalNAc,-0.563
same,glycan array binding signal (z-score),[24],-0.372
same,glycan array binding signal (z-score),[25],0.596
same,glycan array binding signal (z-score),[26],-0.671
same,glycan array binding signal (z-score),[27],-0.299
same,glycan array binding signal (z-score),[28],-0.624

# Some of the entries so far, with bars between the fields.
binder | measurement | setting | value
B1 | glycan array binding signal (z-score) | [9] | -0.342
same | glycan array binding signal (z-score) | [10] | -0.357
